Results deposited as PubChem BioAssay AID1224830 (NIAID, 2016).
Assay: 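Genes whose knock-down alters the TNF-alpha reporter response to LPS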 (primary screen). Cell system: human THP-1 monocytic leukaemia cells, TNF dual-luciferase reporter clone, PMA-differentiated to macrophage-like cells. Knock-down reagent: siRNA pool against human genes, 50 nM. Time to read-out: LPS for 4 h, given about 3 days after siRNA transfection. Conditions: bacterial LPS (TLR4 ligand), 10 ng/ml. Read-out: 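Ratio of firefly to renilla light, scaled to the plate median and expressed as a robust z-score per replicate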. Scale: TNF reporter robust z-score: higher = stronger TNF reporter response to LPS. Call rule: 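Each well counts as active if its z-score is over 2.8 or under -1.5; controls are left without a call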.
The whole screen tested about 18,000 reagents; below is a random part of them. In the full data, about 2,900 (16%) got an active call. 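Calls are made per well; low scores hint the gene aids the LPS response, high scores that it dampens it.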 Unmarked entries are inactive. Repeated entries: four replicate wells of each siRNA pool.

{"target gene": "WASHC2A (GeneID 387680)", "TNF reporter robust z-score": -0.8}
{"target gene": "WASHC2A (GeneID 387680)", "TNF reporter robust z-score": -0.38}
{"target gene": "WASHC2A (GeneID 387680)", "TNF reporter robust z-score": -0.93}
{"target gene": "WASHC2A (GeneID 387680)", "TNF reporter robust z-score": -1.36}
{"target gene": "CDHR3 (GeneID 222256)", "TNF reporter robust z-score": -0.27}
{"target gene": "CDHR3 (GeneID 222256)", "TNF reporter robust z-score": -0.95}
{"target gene": "CDHR3 (GeneID 222256)", "TNF reporter robust z-score": -0.57}
{"target gene": "CDHR3 (GeneID 222256)", "TNF reporter robust z-score": -0.06}
{"target gene": "ERBB4 (GeneID 2066)", "TNF reporter robust z-score": 0.41}
{"target gene": "ERBB4 (GeneID 2066)", "TNF reporter robust z-score": -1.21}
{"target gene": "ERBB4 (GeneID 2066)", "TNF reporter robust z-score": 0.38}
{"target gene": "ERBB4 (GeneID 2066)", "TNF reporter robust z-score": -0.81}
{"target gene": "GTF2IRD2B (GeneID 389524)", "TNF reporter robust z-score": 2.77}
{"target gene": "GTF2IRD2B (GeneID 389524)", "TNF reporter robust z-score": 2.47}
{"target gene": "GTF2IRD2B (GeneID 389524)", "TNF reporter robust z-score": "3.98 (active)"}
{"target gene": "GTF2IRD2B (GeneID 389524)", "TNF reporter robust z-score": "3.06 (active)"}
{"target gene": "RSPO4 (GeneID 343637)", "TNF reporter robust z-score": -1.18}
{"target gene": "RSPO4 (GeneID 343637)", "TNF reporter robust z-score": -0.41}
{"target gene": "RSPO4 (GeneID 343637)", "TNF reporter robust z-score": -0.76}
{"target gene": "RSPO4 (GeneID 343637)", "TNF reporter robust z-score": -0.04}
{"target gene": "PRLH (GeneID 51052)", "TNF reporter robust z-score": 1.21}
{"target gene": "PRLH (GeneID 51052)", "TNF reporter robust z-score": 1.34}
{"target gene": "PRLH (GeneID 51052)", "TNF reporter robust z-score": 0.65}
{"target gene": "PRLH (GeneID 51052)", "TNF reporter robust z-score": 2.44}
{"target gene": "APOA2 (GeneID 336)", "TNF reporter robust z-score": 0.51}
{"target gene": "APOA2 (GeneID 336)", "TNF reporter robust z-score": 0.07}
{"target gene": "APOA2 (GeneID 336)", "TNF reporter robust z-score": 0.25}
{"target gene": "APOA2 (GeneID 336)", "TNF reporter robust z-score": -0.17}
{"target gene": "SCN9A (GeneID 6335)", "TNF reporter robust z-score": 2.64}
{"target gene": "SCN9A (GeneID 6335)", "TNF reporter robust z-score": 1.23}
{"target gene": "SCN9A (GeneID 6335)", "TNF reporter robust z-score": 0.95}
{"target gene": "SCN9A (GeneID 6335)", "TNF reporter robust z-score": 1.46}

No new results follow: an excerpt of the list.
{"target gene": "RSPO4 (GeneID 343637)", "TNF reporter robust z-score": -0.41}
{"target gene": "RSPO4 (GeneID 343637)", "TNF reporter robust z-score": -0.76}

Additional results:
{"target gene": "PAK1IP1 (GeneID 55003)", "TNF reporter robust z-score": -0.7}
{"target gene": "PAK1IP1 (GeneID 55003)", "TNF reporter robust z-score": 0.01}
{"target gene": "PAK1IP1 (GeneID 55003)", "TNF reporter robust z-score": 0.68}
{"target gene": "PAK1IP1 (GeneID 55003)", "TNF reporter robust z-score": -0.24}
{"target gene": "NCR3 (GeneID 259197)", "TNF reporter robust z-score": -1.37}
{"target gene": "NCR3 (GeneID 259197)", "TNF reporter robust z-score": -0.41}
{"target gene": "NCR3 (GeneID 259197)", "TNF reporter robust z-score": "-2.15 (active)"}
{"target gene": "NCR3 (GeneID 259197)", "TNF reporter robust z-score": -1.14}
{"target gene": "HGS (GeneID 9146)", "TNF reporter robust z-score": -0.28}
{"target gene": "HGS (GeneID 9146)", "TNF reporter robust z-score": -0.04}
{"target gene": "HGS (GeneID 9146)", "TNF reporter robust z-score": -0.32}
{"target gene": "HGS (GeneID 9146)", "TNF reporter robust z-score": "4.72 (active)"}
{"target gene": "DLG5 (GeneID 9231)", "TNF reporter robust z-score": -0.37}
{"target gene": "DLG5 (GeneID 9231)", "TNF reporter robust z-score": 0.72}
{"target gene": "DLG5 (GeneID 9231)", "TNF reporter robust z-score": 0}
{"target gene": "DLG5 (GeneID 9231)", "TNF reporter robust z-score": 0.14}
